Experimental data reported in paper PMC6925144, “A prospective compound screening contest identified broader inhibitors for Sirtuin 1” (Scientific Reports, 2019).
The full ranking holds about 3,200 compounds; the median of “TSA(without NAD+) / Primary screening (TSA) / delta Tm (K)” is about -0.07, and the highest 2% start at about 0.37. The list shows a part of the results.

Amino acid sequences for entries named in this document (tags omitted). Residues count along the entry.
UniProt Q96EB6, 2-747 limits assumed: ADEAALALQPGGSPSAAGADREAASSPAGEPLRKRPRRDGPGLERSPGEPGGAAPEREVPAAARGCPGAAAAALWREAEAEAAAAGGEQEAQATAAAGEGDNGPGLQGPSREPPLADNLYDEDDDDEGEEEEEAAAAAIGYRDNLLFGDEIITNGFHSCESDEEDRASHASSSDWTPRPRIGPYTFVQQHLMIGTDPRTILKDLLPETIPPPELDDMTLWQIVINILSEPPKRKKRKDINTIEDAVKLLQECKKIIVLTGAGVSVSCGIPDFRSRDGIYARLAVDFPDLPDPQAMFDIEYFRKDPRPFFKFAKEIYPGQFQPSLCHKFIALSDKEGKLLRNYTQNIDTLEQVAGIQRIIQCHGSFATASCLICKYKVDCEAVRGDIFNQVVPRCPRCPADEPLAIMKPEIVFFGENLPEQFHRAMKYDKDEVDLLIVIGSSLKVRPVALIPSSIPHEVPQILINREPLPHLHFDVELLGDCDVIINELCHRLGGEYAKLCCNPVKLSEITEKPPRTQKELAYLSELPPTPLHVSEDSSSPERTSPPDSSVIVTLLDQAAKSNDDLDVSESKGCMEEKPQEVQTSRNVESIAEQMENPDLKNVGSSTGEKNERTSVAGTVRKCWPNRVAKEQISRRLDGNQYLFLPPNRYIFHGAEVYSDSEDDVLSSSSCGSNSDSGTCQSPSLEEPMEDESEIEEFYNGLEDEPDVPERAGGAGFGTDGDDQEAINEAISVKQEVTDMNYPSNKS

Biological target: NAD-dependent deacetylase Sirtuin 1 (human, UniProt Q96EB6)
Assay: primary screen, delta tm
Parameters: single well (n = 1)
Conditions: 10 µM
How it was run: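 Thermal shift of Sirtuin 1 measured without NAD+, compound at 10 µM (n = 1); value is ΔTm, with hits defined as ΔTm > 0.45 K or < −1.5 K. Hits retested at 5, 10, 20 µM (n = 4) and counterscreened on bovine carbonic anhydrase and ABL1 SH2 domain.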

Structure (SMILES) | TSA(without NAD+) / Primary screening (TSA) / delta Tm (K)
CCCN(CC(=O)Nc1ccc(C(N)=O)cc1)CC(=O)Nc1ccccc1C | 0.08
Cc1ccc(C(=O)C2=C(O)C(=O)N(CCCN3CCOCC3)C2c2ccc([N+](=O)[O-])cc2)cc1 (stereo not shown) | 0.07
O=S(=O)(c1cccc(Br)c1)N1CCN(c2ncnc3cc(Cl)ccc23)CC1 | 0.07
CN(CC(=O)Nc1ccc(Cl)cc1)C(=O)c1ccccc1SCC(=O)NC12CC3CC(CC(C3)C1)C2 | -0.31
O=C1CCC(C(=O)Nc2cccc(Cn3cnc4ccccc43)c2)N1 (stereo not shown) | -0.22
Sc1nc2ccccc2c2nc(-c3cc4ccccc4o3)nn12 | -0.03
c1coc(CNc2ncnc3ccsc23)c1 | 0.05
N#Cc1ccc(S(=O)(=O)NCc2ccc(S(N)(=O)=O)s2)cc1 | -0.13
CC(C(N)=O)N(C)Cc1ccccc1Cl (stereo not shown) | -0.08
CCn1c2ccccc2c2cc(NC(=O)C(C)OC(=O)c3cccc(S(=O)(=O)Nc4ccc(Cl)cc4)c3)ccc21 (stereo not shown) | 0.56
CC(NC(=O)COC(=O)c1ccccc1C(=O)N1CCN(c2ccccc2)CC1)C12CC3CC(CC(C3)C1)C2 (stereo not shown) | -0.51
Cc1ccc(OCCN)cc1 | -0.18
CC(OC(=O)c1cccc(S(=O)(=O)Nc2ccc(F)cc2)c1)c1nc2ccccc2c(=O)[nH]1 (stereo not shown) | 0.02
Cc1ccc(CSc2nc3ccsc3c(=O)n2C)cc1 | -0.01
CC(C)C(NC(=O)c1ccco1)C(=O)NNC(=O)C1CC1 (stereo not shown) | -0.22
CN(CC(=O)Nc1ccc(Cl)cc1)C(=O)CCn1ccc2ccccc21 | 0.25
COc1ccc(C=C2C(=O)NC(=S)NC2=O)cc1 | 0.13
NC(=O)c1ccc(S(=O)(=O)N2CCN(CC(O)c3ccccc3)CC2)cc1 (stereo not shown) | 0.17
Cc1nc2ccc(Cl)cc2cc1C(=O)NCC(c1ccccc1)N1CCCC1 (stereo not shown) | -0.22
CCCn1c(NC(=O)c2ccc3c(c2)CCC(=O)N3)nc2ccccc21 | 0.12
NC(=O)c1ccc(NC(=O)C(Cc2ccccc2)NC(=O)c2ccccc2)cc1 (stereo not shown) | 0.07
Cc1ccc(C)c(NC(=O)Cc2nc(COC(=O)c3ccc(O)cc3O)cs2)c1 | 0.22
Cc1nc(-c2ccsc2)sc1C(=O)NCc1ccc(N2CCOCC2)c(F)c1 | 0.09

Structure (SMILES) | TSA(without NAD+) / Primary screening (TSA) / delta Tm (K)
Cc1nc(C)c(CNC(=O)N2CC(C)c3ccccc32)s1 (stereo not shown) | -0.08
CN(C(=O)Cc1ccc(NC(=O)NCc2ccc(-n3cncn3)nc2)cc1)c1ccccc1 | 0.08
COc1ccccc1-c1noc(C(C)NC(=O)C(C)NC(C)=O)n1 (stereo not shown) | -0.08
Cc1cc(C(=O)CN2CCCC2c2cccn2C)c(C)n1-c1ccc(S(N)(=O)=O)cc1 (stereo not shown) | -0.05
O=C(CC12CC3CC(CC(C3)C1)C2)NN/C=C1/C(=O)N(Cc2ccccc2)C(=O)c2ccccc21 | 0.32
CCCNc1nnc(S)s1 | -0.43
CCc1cc2c(N3CCN(CCCc4nc(-c5cccs5)no4)CC3)ncnc2s1 | -0.38
CCN(CC)C(=O)Nc1ccc(C(C)NC(=O)c2cc3c(F)cccc3[nH]2)cc1 (stereo not shown) | 0.02
O=C(CC12CC3CC(CC(O)(C3)C1)C2)NCc1cc(-c2ccccc2)on1 | -0.08
O=c1[nH]c(CN2CCN(c3ncnc4sc5c(c34)CCCCC5)CC2)nc2sc3c(c12)CCCC3 | -0.17
O=C(NC1CCS(=O)(=O)c2ccccc21)C1=Cc2ccccc2OC1 (stereo not shown) | -0.08
CC(NCC1(N(C)C)CCOCC1)c1ccc(S(C)(=O)=O)cc1 (stereo not shown) | -0.15
Cc1ccc2[nH]c(SCc3cc(=O)oc4ccc5ccccc5c34)nc2c1 | 0.28
CC(O)c1nc2ccccc2n1Cc1cnn(C)c1C(F)(F)F (stereo not shown) | -0.15
N#Cc1ccc(S(=O)(=O)N2CCN(c3ncnc4cc(Cl)ccc34)CC2)cc1 | 0.22
COC(=O)c1c(C)[nH]c(C(=O)C(C)OC(=O)c2ccc(C(N)=O)cc2)c1C (stereo not shown) | -0.07
O=C(c1cnc(-c2ccccc2)nc1)c1cc(Br)ccc1O | -0.15
CCC(CC)N(c1ccc(C)c(C)c1)S(=O)(=O)c1cccc(C(N)=O)c1 | -0.05
O=C(O)Cn1nc(-c2ccccc2)ccc1=O | 0.02
COC(C)[C@H](C)N (stereo partly shown) | -0.23
O=C(Nc1cccc2ccccc12)N1CCC(c2ccc(O)cc2)CC1 | -0.08
CCc1cc2c(N3CCCC3)nc(C)nc2s1 | -0.07
CCOC(=O)c1c(C)[nH]c(C)c1C(=O)COC(=O)c1cccc(S(=O)(=O)N2CC3(C)CC2CC(C)(C)C3)c1 (stereo not shown) | -0.02

Three entries from above, arranged by length of the SMILES, low to high:
Structure (SMILES) | TSA(without NAD+) / Primary screening (TSA) / delta Tm (K)
Cc1ccc(OCCN)cc1 | -0.18
NC(=O)c1ccc(NC(=O)C(Cc2ccccc2)NC(=O)c2ccccc2)cc1 (stereo not shown) | 0.07
Cc1cc(C(=O)CN2CCCC2c2cccn2C)c(C)n1-c1ccc(S(N)(=O)=O)cc1 (stereo not shown) | -0.05

Next records.

Structure (SMILES) | TSA(without NAD+) / Primary screening (TSA) / delta Tm (K)
COc1ccc(N(C)S(=O)(=O)c2cccc(C(=O)NCCCOc3cccc(C)c3)c2)cc1 | -0.03
Oc1ccc(Cl)cc1/C=N/c1ccccc1 | -0.28
CCCn1ccnc1S(=O)(=O)CC(=O)Nc1ccc(C(N)=O)cc1 | -0.12
NCCCCN | -0.17
Nc1ncnc2c1cnn2-c1ccccc1 | -0.03
CCc1nn2c(=O)cc(CNc3cc(Cl)ccc3F)nc2s1 | -0.05
CNC(=O)C1CNc2ccccc2O1 (stereo not shown) | -0.02
COc1ccc2cc(C3(C)NC(=O)N(CC(=O)NCC45CC6CC(CC(C6)C4)C5)C3=O)ccc2c1 (stereo not shown) | -0.02
CC(CC(O)c1ccccc1)NC(=O)c1cccc(S(=O)(=O)NCC2CCCO2)c1 (stereo not shown) | -0.02
C[C@H](NC(N)=O)C(=O)OCC(=O)Nc1ccc(C(N)=O)cc1 | 0.02
NC(=O)COC(=O)C1CC(=O)N(c2ccc3c(c2)OCCO3)C1 (stereo not shown) | -0.02
COc1ccc(NC(=O)c2cccc(S(=O)(=O)NC(C)C34CC5CC(CC(C5)C3)C4)c2)cc1S(=O)(=O)N1CCOCC1 (stereo not shown) | 0.08
CN(CC(=O)NCc1ccco1)CC(=O)Nc1nc(-c2c[nH]c3ccccc23)cs1 | -0.13
O=C1NC(=S)NC(=O)C1=NNc1cccc(OC(F)F)c1 | 0.09
Cc1ccc(OCc2nnc(SCc3ccccc3)n2N)c(C)c1 | -0.02
NC(=O)N(Cc1ccccc1)Cc1ccccc1 | 0.05
COc1ccc(C(=O)C2=C(O)C(=O)N(CCN3CCOCC3)C2c2ccc(Cl)cc2)c(O)c1 (stereo not shown) | -0.01
CN(c1cccc(Cl)c1)S(=O)(=O)c1cccc(C(=O)Nc2sccc2C(N)=O)c1 | 0.18
CC(OC(=O)Cc1c[nH]c2ccccc12)C(=O)Nc1ccc(C(N)=O)cc1 (stereo not shown) | 0.18
c1nc(N2CCN(Cc3csc(-c4ccsc4)n3)CC2)c2c3c(sc2n1)CCCC3 | -0.08
COc1ccc(N(C)S(=O)(=O)c2cccc(C(=O)Nc3cccc(Br)c3)c2)cc1 | 0.38
O=C1NC(=O)C(c2ccccc2)(C(F)(F)F)N1 (stereo not shown) | -0.12
COc1ccc(CCSc2nc3ccsc3c(=O)n2C)cc1 | -0.04

Some values from above.
TSA(without NAD+) / Primary screening (TSA) / delta Tm (K) with COc1ccc(CCSc2nc3ccsc3c(=O)n2C)cc1 is entered as -0.04
TSA(without NAD+) / Primary screening (TSA) / delta Tm (K) with Cc1ccc(OCc2nnc(SCc3ccccc3)n2N)c(C)c1 is entered as -0.02
TSA(without NAD+) / Primary screening (TSA) / delta Tm (K) with O=C1NC(=S)NC(=O)C1=NNc1cccc(OC(F)F)c1 is entered as 0.09

Following part

Structure (SMILES) | TSA(without NAD+) / Primary screening (TSA) / delta Tm (K)
COc1ccc(-c2noc(CN3CCN(c4ncnc5scc(-c6ccccc6)c45)CC3)n2)cc1 | -0.02
O=C1CCC(=O)N(c2ccc(C(=O)NC34CC5CC(CC(C5)C3)C4)cc2)N1 | 0.17
CN(c1cccnc1)S(=O)(=O)c1cccc(-n2cnnn2)c1 | 0.02
Cc1ccc(C23CC4CC(CC(C(=O)OCC(=O)Nc5ccc(S(N)(=O)=O)cc5)(C4)C2)C3)cc1 | 0.32
COc1ccc(S(=O)(=O)N2CCOCC2)cc1NC(=O)c1ccccc1SCC(=O)NC12CC3CC(CC(C3)C1)C2 | 0.02
Cc1cc(C)cc(C(=O)Nc2cccc(S(=O)(=O)N3CCCCCC3)c2)c1 | 0.12
CN(Cc1nc2ccccc2s1)C(=O)CSc1nnc(C2COc3ccccc3O2)o1 (stereo not shown) | -0.12
CN(C)C(=O)CCNc1ncnc2ccsc12 | -0.32
O=C(Cn1cnc2sc3c(c2c1=O)CCCCC3)N1CCc2ccccc21 | -0.27
O=C(Nc1ccc2c(c1)OC1(CCCC1)O2)c1cc(O)nc2ccccc12 | 0.07
N#C/C(=C\c1[nH]c2ccccc2c1Cl)C(N)=O | -0.13
NC(=S)c1ccc(C(=O)NC2CCCc3cc(OC(F)F)ccc32)cc1 (stereo not shown) | 0.06
CC(C)Cn1c(SC(C)C(=O)Nc2sc3c(c2C(N)=O)CCC3)nnc1N1CCOCC1 (stereo not shown) | -0.08
CC(NC(=O)c1ccc2c(c1)C(=O)c1ccccc1-2)C1CC2CCC1C2 (stereo not shown) | 0.18
CCNC(=O)CSc1nnc(-c2c[nH]c3ccccc23)n1Cc1ccco1 | 0.05
NC(=O)Cn1nc(-n2cncn2)ccc1=O | -0.17
O=C(CCc1c[nH]c2ccccc12)Nc1ccc2nc[nH]c(=O)c2c1 | 0.26
COc1ccc(N(C)S(=O)(=O)c2cccc(C(=O)Nc3ccccc3-c3ccccc3)c2)cc1 | 0.06
CCOC(=O)C(C)N (stereo not shown) | -0.24
Cc1cc(=O)oc2cc(OCC(=O)N3CCc4ccccc4C3)ccc12 | 0.03
Cc1ccc(C(=O)Nc2ccc(NC(=O)NCC3CCCO3)cc2)cn1 (stereo not shown) | 0.52
O=C1/C(=C/c2ccc(Br)cc2)Oc2cc(O)ccc21 | 0.36
